# Measurements reported in PubChem BioAssay AID493246 (Drosophila RNAi Screening Center, 2011)
# Purpose: 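Identify essential fly genes by loss of cell viability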 (primary screen)
# Cell system: Drosophila Kc and S2R+ cells
# Reagents: long dsRNA against Drosophila genes
# Read-out: 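Cell number per well after knock-down, printed as raw plate values; calls were based on per-plate z-scores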
# Direction: Kc cell number and S2R+ cell number: higher = more cells remaining
# Call rule: 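Active when the per-plate z-score of cell number is 3 or more in the direction of fewer cells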
# The screen tested about 21,000 reagents; this is an unselected part of those with a known target gene and a result. Over the whole deposit, 429 (2%) are marked active. 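Values are raw and not normalised between plates; calls rest on per-plate z-scores that were not deposited.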 Reagents against one gene are numbered here. The record does not give: the amount of reagent, the time to read-out.
The first 7 entries, to show the layout:
predicted target,reagent,"Kc cell number, rep 1","Kc cell number, rep 2","S2R+ cell number, rep 1","S2R+ cell number, rep 2",outcome
CG31404 (GeneID 318714),1,1.35e6,1.32e6,1.05e6,1.10e6,inactive
Dtwd2 (GeneID 40873),1,1.64e6,1.95e6,1.28e6,1.41e6,inactive
Muc96D (GeneID 318737),1,1.32e6,1.32e6,1.02e6,1.13e6,inactive
Neos (GeneID 38795),1,1.50e6,1.55e6,1.20e6,9.60e5,inactive
CG42747 (GeneID 38732),1,1.73e6,1.64e6,1.36e6,1.29e6,inactive
CG42747 (GeneID 38732),2,1.37e6,1.69e6,1.11e6,1.15e6,inactive
CYLD (GeneID 34380),1,1.51e6,1.51e6,1.22e6,1.27e6,inactive

The listing, repeating the preview:
predicted target,reagent,"Kc cell number, rep 1","Kc cell number, rep 2","S2R+ cell number, rep 1","S2R+ cell number, rep 2",outcome
CG31404 (GeneID 318714),1,1.35e6,1.32e6,1.05e6,1.10e6,inactive
Dtwd2 (GeneID 40873),1,1.64e6,1.95e6,1.28e6,1.41e6,inactive
Muc96D (GeneID 318737),1,1.32e6,1.32e6,1.02e6,1.13e6,inactive
Neos (GeneID 38795),1,1.50e6,1.55e6,1.20e6,9.60e5,inactive
CG42747 (GeneID 38732),1,1.73e6,1.64e6,1.36e6,1.29e6,inactive
CG42747 (GeneID 38732),2,1.37e6,1.69e6,1.11e6,1.15e6,inactive
CYLD (GeneID 34380),1,1.51e6,1.51e6,1.22e6,1.27e6,inactive
Cyp4e1 (GeneID 44632),1,1.46e6,1.55e6,1.28e6,1.39e6,inactive
CG12848 (GeneID 50139),1,1.70e6,1.75e6,1.43e6,1.55e6,inactive
Set1 (GeneID 3354971),1,1.58e6,1.58e6,1.01e6,1.14e6,inactive
Set1 (GeneID 3354971),2,1.52e6,1.61e6,9.38e5,1.09e6,inactive
ATP7 (GeneID 32142),1,1.59e6,1.53e6,1.03e6,1.15e6,inactive
mthl3 (GeneID 36961),1,1.30e6,1.39e6,1.07e6,1.13e6,inactive
CG11044 (GeneID 37281),1,1.70e6,1.72e6,1.27e6,1.49e6,inactive
mdu (GeneID 32201),1,1.34e6,1.18e6,7.87e5,8.91e5,inactive
Fcp1 (GeneID 37925),1,1.37e6,1.47e6,1.17e6,1.22e6,inactive
CG15803 (GeneID 42206),1,1.42e6,1.37e6,1.12e6,1.36e6,inactive
IP3K1 (GeneID 34300),1,1.41e6,1.48e6,1.10e6,1.17e6,inactive
HtrA2 (GeneID 41756),1,1.34e6,1.36e6,1.08e6,1.18e6,inactive
dgt3 (GeneID 37377),1,1.41e6,1.50e6,9.38e5,1.04e6,inactive
SelT (GeneID 33725),1,1.19e6,1.34e6,6.14e5,9.52e5,inactive
CG14113 (GeneID 50287),1,1.23e6,1.21e6,1.27e6,1.40e6,inactive
stau (GeneID 37065),1,1.33e6,1.38e6,1.16e6,1.25e6,inactive
p (GeneID 41025),1,1.26e6,1.43e6,1.28e6,1.32e6,inactive
Hsc70-3 (GeneID 32133),1,1.06e6,1.07e6,6.80e5,7.52e5,inactive
alphaTub84B (GeneID 40848),1,1.44e6,1.52e6,8.29e5,9.03e5,active
Acat1 (GeneID 31695),1,6.33e5,,9.39e5,,inactive
lilli (GeneID 33496),1,1.52e6,1.50e6,1.03e6,1.21e6,inactive
mRpL10 (GeneID 33182),1,9.32e5,1.52e6,9.84e5,9.80e5,inactive
mag (GeneID 40267),1,1.70e6,1.71e6,1.47e6,1.49e6,inactive
CG11191 (GeneID 35765),1,1.50e6,1.58e6,1.06e6,1.10e6,inactive
CG7656 (GeneID 39691),1,1.93e6,1.97e6,1.29e6,1.36e6,inactive
Tsp3A (GeneID 31244),1,1.43e6,1.49e6,1.03e6,1.20e6,inactive
RpL14 (GeneID 38983),1,8.88e5,9.66e5,5.74e5,6.84e5,active
pinta (GeneID 42635),1,1.56e6,1.62e6,1.20e6,1.23e6,inactive
Gr93c (GeneID 117471),1,1.35e6,1.37e6,1.05e6,1.10e6,inactive
Tret1-2 (GeneID 36249),1,1.53e6,1.58e6,1.28e6,1.34e6,inactive
CG14384 (GeneID 41588),1,1.51e6,1.39e6,1.05e6,1.14e6,inactive
Dnali1 (GeneID 41440),1,1.60e6,1.65e6,1.34e6,1.34e6,inactive
CG6770 (GeneID 34621),1,1.48e6,1.48e6,8.51e5,9.71e5,inactive
NKAIN (GeneID 37979),1,1.32e6,1.39e6,1.05e6,1.00e6,inactive
Nipped-B (GeneID 3355136),1,1.41e6,1.29e6,8.93e5,1.02e6,inactive
CG15356 (GeneID 33370),1,1.52e6,1.59e6,9.69e5,1.13e6,inactive
Fbxo42 (GeneID 37532),1,1.40e6,1.46e6,1.08e6,1.09e6,inactive
CG11127 (GeneID 35673),1,1.41e6,1.45e6,1.00e6,1.08e6,inactive
tous (GeneID 37582),1,1.39e6,1.46e6,1.19e6,1.23e6,inactive
Cyp4d14 (GeneID 45706),1,1.52e6,1.51e6,1.11e6,1.20e6,inactive
CG5883 (GeneID 39352),1,1.29e6,1.26e6,1.20e6,1.26e6,inactive
Spt6 (GeneID 44000),1,4.55e5,,6.34e5,,inactive
CG3330 (GeneID 43296),1,5.50e5,,8.49e5,,inactive
arg (GeneID 46717),1,6.20e5,,8.72e5,,inactive
FRG1 (GeneID 40228),1,1.56e6,1.75e6,1.21e6,1.32e6,inactive
mthl12 (GeneID 261599),1,1.68e6,1.65e6,1.15e6,1.24e6,inactive
caly (GeneID 36794),1,1.45e6,1.50e6,1.18e6,1.21e6,inactive
Sox14 (GeneID 37822),1,1.67e6,1.77e6,1.45e6,1.61e6,inactive
CG32700 (GeneID 31896),1,1.57e6,1.49e6,1.04e6,1.12e6,inactive
CG32700 (GeneID 31896),2,1.51e6,1.48e6,1.06e6,1.10e6,inactive
SCAP (GeneID 35529),1,1.82e6,1.93e6,1.26e6,1.42e6,inactive
SCAP (GeneID 35529),2,1.72e6,1.84e6,1.38e6,1.52e6,inactive
Sln (GeneID 36263),1,1.65e6,1.65e6,1.30e6,1.37e6,inactive
CG15011 (GeneID 38518),1,1.27e6,1.47e6,1.17e6,1.00e6,inactive
AANATL3 (GeneID 35285),1,1.52e6,1.65e6,1.31e6,3.53e5,inactive
Prosalpha6T (GeneID 34726),1,1.60e6,1.62e6,1.33e6,1.51e6,inactive
Gabat (GeneID 40188),1,1.48e6,1.74e6,1.31e6,1.39e6,inactive
Tao (GeneID 32948),1,1.42e6,1.52e6,1.00e6,1.10e6,inactive
Tao (GeneID 32948),2,1.53e6,1.50e6,1.01e6,1.21e6,inactive
CG10151 (GeneID 36639),1,1.34e6,1.45e6,1.04e6,1.07e6,inactive
Smr (GeneID 32225),1,1.84e5,,4.56e5,,active
Smr (GeneID 32225),2,7.53e5,8.14e5,4.69e5,5.53e5,active
Sfmbt (GeneID 34709),1,1.35e6,1.38e6,1.25e6,1.35e6,inactive
CG3610 (GeneID 41795),1,1.27e6,1.37e6,1.18e6,1.28e6,inactive
CG2126 (GeneID 43748),1,1.58e6,1.61e6,1.05e6,1.21e6,inactive
mats (GeneID 42634),1,1.48e6,1.48e6,1.12e6,1.25e6,inactive
mats (GeneID 42634),2,1.57e6,1.58e6,1.20e6,1.16e6,inactive
CG15126 (GeneID 50202),1,1.51e6,1.60e6,1.13e6,1.25e6,inactive
